In article PMC6435041 one finds binding data, which are given here for 1 substance.

Chains of the proteins cited; added tags and fusions are not shown. Lines headed by an entry give the natural chain unless they say otherwise; changes in a name come on top. A line that says so, or that is headed by a name, gives the form on record, which may keep a tag or linker.
UniProt Q16637: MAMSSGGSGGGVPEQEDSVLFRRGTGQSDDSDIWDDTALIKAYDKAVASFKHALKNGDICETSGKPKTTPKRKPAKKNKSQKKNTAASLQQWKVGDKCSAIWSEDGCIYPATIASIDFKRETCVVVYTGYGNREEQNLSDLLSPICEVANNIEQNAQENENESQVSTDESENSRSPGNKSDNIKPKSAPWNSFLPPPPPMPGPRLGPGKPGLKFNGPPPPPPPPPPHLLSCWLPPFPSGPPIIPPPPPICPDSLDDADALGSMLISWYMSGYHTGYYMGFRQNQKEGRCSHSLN
Myc-SMN2a (SMN-Δ7, exon 7-deleted form of survival motor neuron protein) (Q16637, form named): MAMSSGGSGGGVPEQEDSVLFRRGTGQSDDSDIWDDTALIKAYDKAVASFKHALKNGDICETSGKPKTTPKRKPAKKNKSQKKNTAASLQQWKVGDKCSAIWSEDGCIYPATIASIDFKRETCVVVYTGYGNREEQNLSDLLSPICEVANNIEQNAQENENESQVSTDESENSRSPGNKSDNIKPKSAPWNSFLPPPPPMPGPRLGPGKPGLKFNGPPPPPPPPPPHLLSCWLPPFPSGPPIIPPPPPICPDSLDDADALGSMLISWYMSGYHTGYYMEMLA
UniProt P07711: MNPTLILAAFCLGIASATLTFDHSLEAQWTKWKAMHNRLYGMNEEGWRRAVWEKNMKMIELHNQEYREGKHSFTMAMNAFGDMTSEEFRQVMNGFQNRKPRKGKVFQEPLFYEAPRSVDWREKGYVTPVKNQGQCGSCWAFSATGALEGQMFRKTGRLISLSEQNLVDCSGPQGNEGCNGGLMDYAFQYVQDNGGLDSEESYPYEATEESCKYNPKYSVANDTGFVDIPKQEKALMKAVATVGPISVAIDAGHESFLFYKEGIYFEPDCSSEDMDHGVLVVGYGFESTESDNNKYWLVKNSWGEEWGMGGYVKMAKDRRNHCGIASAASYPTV

These are yes or no findings as the source states them, for the method shown. In cells and extracts the contact can be indirect.

Assay [1] has as its target Myc-SMN2a (SMN-Δ7, exon 7-deleted form of survival motor neuron protein) (human) (UniProt Q16637). The assay can be described thus: co-IP; HEK293 cells co-transfected with 1 μg protease plasmid, 1 μg pLVX-Tight-Myc-SMN2a/d and 1 μg EF1α-rtTA plasmid; which partner was precipitated is not told for this experiment.
Assay [2] has as its target Myc-SMN2d (SMN-FL, full-length survival motor neuron protein) (human) (UniProt Q16637). The description is as above.

On to “C9-tagged CTSL (from UniProt P07711) (enzyme)”, for which the binding result in assay [1] and in assay [2] was “no binding” each time.
